Assay results reported in PubChem BioAssay AID493014 (National Center for Advancing Translational Sciences (NCATS), 2011).
Some of the results follow. Further columns of the screen follow, without active or inactive calls. Most of these compounds were active or inconclusive in the main read-out, so they are no random draw. Potencies come from curve fits of mixed quality, noted in brackets.

Assay: qHTS Assay to Find Inhibitors of Chronic Active B-Cell Receptor Signaling
Conditions: ABC-DLBCL IkBa-CBG/CBR reporter, luminescence ratio (green luciferase fused to IkBa over red control in TMD8 lymphoma cells), 4 h
Summary of the method: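 TMD8 human ABC-DLBCL cells with doxycycline-inducible IκBα–green luciferase fusion and unfused red luciferase, in 0.5% FBS medium; compounds up to 46 uM, 4 h at 37C. Green/red luminescence ratio, filter-overlap corrected, fitted to concentration-response curves.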

[1] = measured here: CBR red luminescence, cell number

Row | Compound | AC50 [1] | AC50 (measured here: IkBa-CBG green luminescence)
1 | Cc1ccc(C)c(NC(=S)N/N=C2/CCCCc3ccccc32)c1 | 23.1 µM [rising, partial curve, poor fit] | –
2 | Cc1ccc(C(=O)NC(Cc2c[nH]c3ccccc23)C(=O)O)o1 (stereo not given) | 23.1 µM [falling, single point] | –
3 | Cc1occc1C(=O)N/N=C/C=C/c1ccccc1 | 22.4 µM [falling, partial curve, poor fit] | –
4 | COC(=O)N1C(=O)[C@@](c2ccccc2)(C2CCCC2)N1C(=O)OC | 8.91 µM [falling, partial curve, poor fit] | –
5 | Cc1ccc(NC(=O)CCCc2ccccc2)c([N+](=O)[O-])c1 | 22.4 µM [rising, partial curve] | –
6 | O=C(Cn1ncc2c3ccccc3n(Cc3ccccc3F)c2c1=O)NCCCN1CCCC1=O | 11.2 µM [falling, partial curve, poor fit] | –
7 | C/C(=N\OC(=O)c1ccc(F)cc1)c1ccc(F)c(F)c1 | 35.5 µM [rising, single point] | –
8 | Cn1cnnc1SCc1ccccc1Br | 20.6 µM [rising, single point] | –
9 | CC(C)CN(C(=O)C1CC1)C1CCS(=O)(=O)C1 (stereo not given) | 20.6 µM [rising, single point] | –
10 | O=c1cnnc(SCCc2ccccc2)[nH]1 | 16.4 µM [falling, partial curve] | –
11 | CC1(C(=O)Nc2nc3ccccc3s2)CC1(Br)Br (stereo not given) | 0.112 µM [falling, full curve, poor fit] | –
12 | CC1C(=O)N2CCCc3cc(NS(=O)(=O)c4ccc(F)cc4)cc1c32 (stereo not given) | 20.6 µM [falling, single point] | –
13 | CCC(C)NC(=O)C1CCN(S(=O)(=O)c2cccnc2)CC1 (stereo not given) | 16.4 µM [falling, partial curve] | –
14 | CCCn1nnc(NC(=O)c2ccc(Br)cc2)n1 | 10.3 µM [falling, partial curve, poor fit] | –
15 | CN(Cc1ccccc1)Cc1nc2c(c(=O)n(C)c(=O)n2C)n1Cc1ccc(F)cc1 | 11.2 µM [falling, partial curve] | –
16 | COc1cnc(-c2ccccc2)nc1Oc1cccc(C)c1C | 5.01 µM [falling, partial curve, poor fit] | –
17 | CC1(C#CC[N+]2(C)CCCCC2)CCC2C(O1)c1ccccc1OC2(C)C (stereo not given) | 7.94 µM [rising, partial curve, poor fit] | –
18 | CCN1CCN(C(=O)Cn2ncc3c([nH]c4ccccc43)c2=O)CC1 | 12.6 µM [rising, single point] | –
19 | O=C(NCCC1CCCCN1S(=O)(=O)c1ccccc1)C(=O)Nc1ccc(F)cc1 (stereo not given) | 2.59 µM [falling, partial curve] | –
20 | COc1ccc(-c2cc(C)nc(SCc3cccc(C(=O)O)c3)n2)cc1 | 1.64 µM [falling, partial curve, poor fit] | –
21 | O=C(Nc1ccc(CN2CCOCC2)cc1)c1ccc(-c2ccc(Cl)cc2Cl)o1 | 15.8 µM [falling, single point] | –
22 | COc1ccc(CCN(C)C(=O)C(CCSC)NC(=O)c2ccco2)cc1OC (stereo not given) | 25.9 µM [rising, single point] | –

Row | Compound | AC50 [1] | AC50 (measured here: IkBa-CBG green luminescence)
23 | O=C(CNCCc1ccc(Cl)cc1)Nc1ccc(C(=O)N2CCCCC2)cc1 | 17.8 µM [falling, partial curve, poor fit] | –
24 | CC(O/N=C/c1ccccc1OC(F)F)C(=O)Nc1cccc(S(=O)(=O)N2CCOCC2)c1 (stereo not given) | 18.4 µM [rising, partial curve, poor fit] | –
25 | O=C(CC1SC(=NCc2ccccc2)NC1=O)Nc1ccccc1 (stereo not given) | 20.6 µM [falling, single point] | –
26 | CCCCN(CCCC)CC(O)CN(c1cc([N+](=O)[O-])ccc1OC)S(=O)(=O)c1ccccc1 (stereo not given) | 29.1 µM [falling, single point] | –
27 | CN(C)c1nc(C(=O)NN)nc(N(C)C)n1 | 0.58 µM [rising, partial curve, poor fit] | –
28 | CC(C)c1c(C(=O)N/N=C/c2ccsc2)nnn1-c1nonc1N | 12.6 µM [rising, partial curve] | –
29 | CCCn1nnc(NC(=O)c2cc(Br)cc(Br)c2OC)n1 | 5.01 µM [rising, full curve, poor fit] | –
30 | COc1cccc(NC(=O)CN(c2ccc(C)cc2)S(=O)(=O)c2c(C)nn(C)c2C)c1 | 0.562 µM [falling, full curve] | –
31 | CCCCn1c(SCC(=O)Nc2cc(C(F)(F)F)ccc2Cl)nnc1C(CC)N(C)C (stereo not given) | 23.1 µM [falling, single point] | –
32 | CCOc1cc(Br)c(C(=O)O)cc1OC | 2.91 µM [rising, single point] | –
33 | S=c1nccc(-c2ccc3c(c2)CCO3)[nH]1 | 35.5 µM [rising, single point] | –
34 | CC(C)CC(NC(=O)CCC(=O)OCC(=O)[C@@]1(O)CCC2[C@@H]3CCC4=CC(=O)C=C[C@]4(C)C3[C@@H](O)C[C@@]21C)C(=O)O (stereo not given in full) | 35.5 µM [rising, single point] | –
35 | CCC(=O)N(C)CCc1cc2c(c(OC)c1/C=N/Nc1ccc(C(=O)O)cc1)OCO2 | 7.94 µM [falling, partial curve] | –
36 | Cc1cc(=O)[nH]c2c3ccccc3nn12 | 6.31 µM [falling, partial curve] | –
37 | O=C(Nc1ccc(N2CCN(Cc3ccccc3)CC2)cc1)c1ccco1 | 35.5 µM [rising, single point] | –
38 | Cc1c(C2(O)CCCCC2)[nH]c2cnccc12 | 8.2 µM [falling, partial curve, poor fit] | –
39 | O=C(c1sc2ccccc2c1Cl)N1CCN(CCc2ccccn2)CC1 | 11.2 µM [falling, single point] | –
40 | c1ccc(-c2cc(NCCN3CCCCC3)c3ccccc3n2)cc1 | 31.6 µM [falling, partial curve, poor fit] | –
41 | Cc1ccc(C(=O)COC(=O)c2cccc(N3C(=O)c4c(C)nc5ccccc5c4C3=O)c2)cc1C | 3.55 µM [falling, full curve, poor fit] | –
42 | COc1cccc(C(=O)Nc2cc(Cl)c(O)c(Cl)c2)c1 | 2 µM [falling, full curve] | –
43 | Cc1ccc(-n2c(-c3nn(C)cc3Cl)n[nH]c2=S)cc1 | 16.4 µM [rising, partial curve, poor fit] | –
44 | COc1ccc(/C=c2\s/c(=C/C(=O)c3ccc(C)cc3)[nH]c2=O)c(OC)c1 | 29.1 µM [rising, single point] | –

Compounds 20–22 of the list above:
Row | Compound | AC50 [1] | AC50 (measured here: IkBa-CBG green luminescence)
20 | COc1ccc(-c2cc(C)nc(SCc3cccc(C(=O)O)c3)n2)cc1 | 1.64 µM [falling, partial curve, poor fit] | –
21 | O=C(Nc1ccc(CN2CCOCC2)cc1)c1ccc(-c2ccc(Cl)cc2Cl)o1 | 15.8 µM [falling, single point] | –
22 | COc1ccc(CCN(C)C(=O)C(CCSC)NC(=O)c2ccco2)cc1OC (stereo not given) | 25.9 µM [rising, single point] | –

The results go on:

Row | Compound | AC50 [1] | AC50 (measured here: IkBa-CBG green luminescence)
45 | Cc1ccccc1NC(=O)CSc1nc(N)c2c3c(sc2n1)CSC(C)(C)C3 | 18.4 µM [falling, single point] | –
46 | COc1ccccc1OCCOC(=O)Nc1ccccc1 | 7.31 µM [falling, partial curve] | –
47 | O=C(CCCc1ccccc1)Nc1ccccc1C(F)(F)F | 5.62 µM [falling, partial curve, poor fit] | –
48 | COc1ccccc1-n1cnc2cc(NCc3ccccc3O)ccc21 | 20 µM [falling, partial curve, poor fit] | –
49 | CN(C)CC1CCCCC1OC(=O)/C=C/c1ccc(Cl)cc1Cl (stereo not given) | 35.5 µM [falling, single point] | –
50 | c1ccc2c3c([nH]c2c1)C(C1CCCCC1)N(Cc1ncc[nH]1)CC3 (stereo not given) | 8.91 µM [falling, partial curve] | –
51 | Cn1c2ccccc2c2cc(/C=N/NC(=O)c3cc(O)ccc3O)ccc21 | 3.55 µM [falling, full curve] | –
52 | Cn1c(SCC(=O)N2CCCCCC2)nnc1-c1ccco1 | 20 µM [rising, partial curve, poor fit] | –
53 | Cc1ccc(C(=O)NC(C(=O)Nc2ccccc2)c2ccccc2)cc1 (stereo not given) | 35.5 µM [rising, single point] | –
54 | CS(=O)(=O)c1nc(-c2cccs2)cc(C(F)(F)F)n1 | 10 µM [falling, partial curve] | –
55 | CC(C)(C)c1ccc(S(=O)(=O)Nc2noc3ccccc23)cc1 | 14.1 µM [rising, partial curve, poor fit] | –
56 | CCOC(=O)c1c(COC(=O)c2ccco2)nc2ccccc2[n+]1[O-] | 1.03 µM [falling, full curve, poor fit] | –
57 | O=C(N/N=C/c1c(Cl)[nH]c2ccccc12)c1ccc2c(c1)OCCO2 | 15.8 µM [falling, single point] | –
58 | COc1cc(OC)cc(C(=O)N[C@H](C(=O)Nc2nnc(C3CC3)s2)C(C)C)c1 | 0.631 µM [rising, full curve, poor fit] | –
59 | C=CCN(c1ccccc1)S(=O)(=O)c1cccc(C(=O)Nc2ncccc2O)c1 | 14.6 µM [falling, partial curve, poor fit] | –
60 | NC(=O)CN1CCN(c2nc(-c3ccc(F)cc3)cs2)CC1 | 7.08 µM [rising, partial curve, poor fit] | –
61 | COc1cc(/C=N/NC(=O)c2ccccc2O)ccc1OCC(=O)Nc1ccccc1 | 11.2 µM [falling, partial curve] | –
62 | COc1ccc(/C=C/C(=O)OCc2csc(-c3ccccc3)n2)cc1OC | 20.6 µM [falling, partial curve, poor fit] | –
63 | CS(=O)(=O)c1ccc(-c2nnc(NC(=O)C3=COCCO3)o2)cc1 | 2.91 µM [falling, partial curve] | –
64 | CCOc1ccc2c(c1)sc(N)[n+]2Cc1cc(C)cc2cccnc12 | 29.1 µM [rising, single point] | 32.6 µM [falling, partial curve, poor fit]
